The subject of the assay is VCaP cells. Put plainly: apoptosis in VCaP cells (CaspaseGlo). It is filed as cell-based. The conditions noted are these: Homo sapiens, CSS + 0.1 nM R1881, 72 hours, read-out: EC50, inducing apoptosis. As to the method:
Intracellular prostate specific antigen (PSA) levels were determined using a PSA enzyme-linked immunosorbent assay (ELISA). […] The cell proliferation was determined using the CellTiter-Glo® assay. […] The CaspaseGlo® assay was carried out to measure the level of apoptosis in cells.
To evaluate the pharmacological effect of Compound A in vitro, PSA, cell proliferation, and apoptosis assays were carried out in VCaP cells.

The text below walks through data of US20240180900A1, “COMPOUNDS AND METHODS FOR THE TARGETED DEGRADATION OF ANDROGEN RECEPTOR” (Arvinas Operations, Inc., priority 2022, published 2024).

As for `CNC(=O)c1ccc(N2C(=S)N(c3ccc(C#N)c(C(F)(F)F)c3)C(=O)C2(C)C)cc1F` [enzalutamide, reference compound], the EC50 (in general, the midpoint of the concentration-response curve) was found to be 1660 nM.
